Article PMC4817257
Results are given in words; binding and its absence hold for the method and conditions named. In cells and extracts the contact can be indirect. Some results given as binding are weak or reduced against the parent protein; the word gives no strength.

Sequences of proteins named here, by UniProt entry; tags and fusion partners are left off.
UniProt Q5AJU7: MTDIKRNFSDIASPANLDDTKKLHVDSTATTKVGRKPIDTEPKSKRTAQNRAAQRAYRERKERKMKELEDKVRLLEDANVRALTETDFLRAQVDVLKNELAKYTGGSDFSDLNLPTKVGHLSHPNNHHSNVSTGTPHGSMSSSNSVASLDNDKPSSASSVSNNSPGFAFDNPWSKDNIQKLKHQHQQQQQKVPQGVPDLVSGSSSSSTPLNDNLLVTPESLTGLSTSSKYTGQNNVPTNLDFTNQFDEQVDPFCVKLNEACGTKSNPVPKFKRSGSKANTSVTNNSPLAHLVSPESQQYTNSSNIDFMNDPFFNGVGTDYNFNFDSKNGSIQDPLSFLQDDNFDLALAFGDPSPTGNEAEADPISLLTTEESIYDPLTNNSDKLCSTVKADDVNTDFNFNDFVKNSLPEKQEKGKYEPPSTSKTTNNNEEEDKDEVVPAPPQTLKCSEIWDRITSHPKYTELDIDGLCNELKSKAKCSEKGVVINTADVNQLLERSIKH

Molecular target: Crm1 nuclear export factor tagged with 2 Myc epitopes and 6 His residues (C. albicans) (UniProt Q9P8X1)
Test: co-IP; Crm1-MH immunoprecipitated with anti-Myc (9E10) agarose from total extracts of C. albicans cells (wild type or hog1Δ) before and after 5 mM H2O2, 1 M NaCl, 5 mM H2O2 plus 1 M NaCl (10-60 min) or 2 M sorbitol; precipitates treated with lambda phosphatase; Cap1 detected by Western blot with anti-Cap1 antibodies

## Cap1 AP-1-like transcription factor (from UniProt Q5AJU7 1-499)
  binding: binds
